Assay results reported in patent US20260008848A1, “ANTI-NECTIN-4 ANTIBODY, AND ANTIBODY-DRUG CONJUGATE AND USE THEREOF” (Bio-Thera Solutions, Ltd., priority 2022, published 2026).
These are yes or no findings as the source states them, for the method shown. Some results given as binding are weak or reduced against the parent protein; the word gives no strength.

Amino acid sequences for entries named in this document (tags omitted). Residues count along the entry.
UniProt Q96NY8, residues 32-510: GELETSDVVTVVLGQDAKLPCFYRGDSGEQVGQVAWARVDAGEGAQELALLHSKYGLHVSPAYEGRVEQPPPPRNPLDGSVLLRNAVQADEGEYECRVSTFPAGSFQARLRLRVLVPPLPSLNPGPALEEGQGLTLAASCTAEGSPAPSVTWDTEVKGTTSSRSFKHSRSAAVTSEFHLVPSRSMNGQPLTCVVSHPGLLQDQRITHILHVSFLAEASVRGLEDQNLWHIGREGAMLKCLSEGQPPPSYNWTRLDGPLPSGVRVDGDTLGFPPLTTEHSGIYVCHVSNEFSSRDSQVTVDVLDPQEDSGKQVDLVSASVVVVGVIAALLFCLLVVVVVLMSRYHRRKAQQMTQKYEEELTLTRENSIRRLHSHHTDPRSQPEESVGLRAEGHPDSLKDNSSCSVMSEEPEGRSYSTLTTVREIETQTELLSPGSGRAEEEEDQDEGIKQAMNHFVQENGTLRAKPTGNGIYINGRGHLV

B1: anti-Nectin-4 antibody ASG-AM (antibody, human IgG1, kappa, V domains shown)
VH: EVQLVESGGGLVQPGGSLRLSCAASGFTFSSYNMNWVRQAPGKGLEWVSYISSSSSTIYYADSVKGRFTISRDNAKNSLSLQMNSLRDEDTAVYYCARAYYYGMDVWGQGTLVTVSS
VL: DIQMTQSPSSVSASVGDRVTITCRASQGISGWLAWYQQKPGKAPKFLIYAASTLQSGVPSRFSGSGSGTDFTLTISSLQPEDFATYYCQQAGPGWVFGQGTKVEIKR
notes: Expressed in HEK293F cells
B2: reference antibody ASG-22 (antibody, human IgG1, kappa, V domains shown)
VH: B1 VH
VL: DIQMTQSPSSVSASVGDRVTITCRASQGISGWLAWYQQKPGKAPKFLIYAASTLQSGVPSRFSGSGSGTDFTLTISSLQPEDFATYYCQQANSFPPTFGGGTKVEIKR
notes: Expressed in HEK293F cells

Biological target: Nectin-4 on T-47D cells (human ductal breast carcinoma cells) (human) (UniProt Q96NY8)
Assay: flow cytometry (FACS) on T-47D cells, PE-labeled anti-human Fc secondary antibody

Binder | binding
B1 | binds
B2 | binds
